Results are given in words; binding and its absence hold for the method and conditions named. In cells and extracts the contact can be indirect. Some results given as binding are weak or reduced against the parent protein; the word gives no strength.
Target: Myc-Ubc9 (UniProt P63279)
Assay: co-IP; HEK293 cells co-transfected with MEK1, Ubc9 and SUMO1 plasmids for 48 h; lysates immunoprecipitated with anti-c-Myc antibody (text: anti-Ubc9 antibody), immunoblotted with anti-HA or Myc antibody

Amino acid sequences for entries named in this document (tags omitted).
UniProt P63279: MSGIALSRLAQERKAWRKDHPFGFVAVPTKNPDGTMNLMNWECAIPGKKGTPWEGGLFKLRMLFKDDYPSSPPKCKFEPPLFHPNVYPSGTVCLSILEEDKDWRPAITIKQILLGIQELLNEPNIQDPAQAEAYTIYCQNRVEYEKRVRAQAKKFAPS

binding: binds
Substance: HA-MEK1 (from UniProt Q02750 1-393)

Source: PMC5293797
